These results are taken from patent US20130253058A1, “SATIETY-INDUCING COMPOSITION” (DSM IP ASSETS B.V., priority 2009, published 2013).

A short description of the data set: TNO Intestinal Model (TIM), Example 3: light microscopy of crystals in jejunum and ileum lumen. It counts as in vitro ADME. As to conditions: yoghurt with 3.5% lipids.

Turning to `CCCCCCCCCCCCCCCC(=O)O` [Palmitic acid], the “amount of crystals by light microscopy, Jejunum lumen” value by setting is: (60 min after insertion of yoghurt in the stomach compartment) “++ (++: many (>10) crystals in most or all of the images)”; (180 min after insertion of yoghurt in the stomach compartment) “++ (++: many (>10) crystals in most or all of the images)”. Besides, the “amount of crystals by light microscopy, Ileum lumen” value by setting is: (120 min after insertion of yoghurt in the stomach compartment) “+ (+: few crystals (max 10), in some or most of the images)”; (240 min after insertion of yoghurt in the stomach compartment) “+ (+: few crystals (max 10), in some or most of the images)”.
